Measurements from patent US10654917B2, “Antibody molecules and peptide delivery systems for use in alzheimer's disease and related disorders” (TECHNOPHAGE, INVESTIGAÇĀO E DESENVOLVIMENTO EM …, priority 2015, dated 2020).

Test: Membrane dipole potential with di-8-ANEPPS in LUVs
Format: physicochemical
Settings: LUVs of different lipidic compositions

| Substance | disturbance of membrane dipole potential (differential spectrum, di-8-ANEPPS) |
| --- | --- |
| AGILKRW (Dengue virus 2; /note=“#PepH3 (PEP+)”) | alterations in the spectrum |
| KLFMALVAFLRFLT [PepH2] | high interaction with the different membrane models tested |
| VQQLTKRFSL (Dengue virus 2; /note=“#PepH1”) | no alteration in the differential spectrum |
